# Counter-ions that a name gives are not always drawn. The list shows a part of the results. Repeats are few or missing, and single values can be far off.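 Labelled rat cortical synaptosomes were engulfed by primary human fetal astrocytes. Engulfment equaled a red/green ratio, corrected for calcein live-cell signal and normalized to the plate median. Compounds were toxic when calcein dropped over 30%, and reduced phagocytosis when below 70% of the median above 5 µM.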
# Tests used:
# Details in all cases: 24 h
# Human fetal astrocytes [1] = test: loss of total cells relative to no-compound high-control median (toxicity); higher = more toxic (fewer cells)
# Human fetal astrocytes [2] = test: as above; remark: listed apart in the source
# Human fetal astrocytes [3] = test: synaptosome phagocytosis (pHrodo/calcein intensity ratio) relative to plate median of data wells; higher = more phagocytosis
# Human fetal astrocytes [4] = test: as above; remark: listed apart in the source
Structure (SMILES),loss of total cells (Human fetal astrocytes [1]; 1.39 µM),loss of total cells (Human fetal astrocytes [1]; 2.78 µM),loss of total cells (Human fetal astrocytes [1]; 5.56 µM),loss of total cells (Human fetal astrocytes [1]; 11.11 µM),loss of total cells (Human fetal astrocytes [1]; 22.22 µM),loss of total cells (Human fetal astrocytes [2]; 1.39 µM),loss of total cells (Human fetal astrocytes [2]; 2.78 µM),loss of total cells (Human fetal astrocytes [2]; 5.56 µM),loss of total cells (Human fetal astrocytes [2]; 11.11 µM),loss of total cells (Human fetal astrocytes [2]; 22.22 µM),synaptosome phagocytosis (Human fetal astrocytes [3]; 1.39 µM),synaptosome phagocytosis (Human fetal astrocytes [3]; 2.78 µM),synaptosome phagocytosis (Human fetal astrocytes [3]; 5.56 µM),synaptosome phagocytosis (Human fetal astrocytes [3]; 11.11 µM),synaptosome phagocytosis (Human fetal astrocytes [3]; 22.22 µM),synaptosome phagocytosis (Human fetal astrocytes [4]; 1.39 µM),synaptosome phagocytosis (Human fetal astrocytes [4]; 2.78 µM),synaptosome phagocytosis (Human fetal astrocytes [4]; 5.56 µM),synaptosome phagocytosis (Human fetal astrocytes [4]; 11.11 µM),synaptosome phagocytosis (Human fetal astrocytes [4]; 22.22 µM)
"C[N+]1(C)[C@@H]2CC(OC(=O)[C@H](CO)c3ccccc3)C[C@H]1[C@@H]1O[C@@H]12 (single isomer, unassigned; (-)) [(-)-Scopolamine methyl nitrate]",-23.3%,-29.6%,-19.1%,-21.1%,-36.2%,-9.1%,-4.6%,6.3%,-23.4%,-5.1%,67%,77.7%,93%,79.2%,92.2%,99.1%,100%,94.8%,129%,115%
CS(=N)(=O)CC[C@H](N)C(=O)O (stereo partly drawn) [L-Methionine sulfoximine],-11.8%,5.9%,8%,1%,1.9%,1.8%,-11.2%,-6.5%,-24.7%,0%,69.4%,93.1%,63%,71.5%,66%,84.2%,95.5%,104%,56.8%,123%
CC[C@@]1(O)C(=O)OCc2c1cc1n(c2=O)Cc2cc3ccccc3nc2-1 [(S)-(+)-Camptothecin],7.1%,-20.5%,-14%,-30.9%,2.4%,4.1%,17.7%,5.1%,13.5%,0.7%,76.3%,68.9%,86.4%,64.3%,104%,92.3%,81.8%,68.9%,74.8%,108%
CCCN1C[C@H](CSC)C[C@@H]2c3cccc4[nH]cc(c34)C[C@H]21 [Pergolide methanesulfonate],-14.6%,-3.9%,6.2%,10.3%,-0.8%,18.5%,-16.7%,14.9%,-4.3%,0.3%,120%,101%,105%,43.5%,95.3%,84.8%,84.1%,114%,103%,88.9%
NCC(O)c1ccc(O)cc1 (racemic) [(±)-Octopamine hydrochloride],-5.2%,-1.4%,4.2%,-24.8%,-12.1%,3.2%,12.6%,5.8%,7.9%,11.4%,126%,140%,88.5%,112%,95.9%,119%,104%,129%,99.1%,142%
COC(=O)C1=CCCN(C)C1 [Arecoline hydrobromide],-18.7%,-28.3%,-14.3%,-15.7%,-5.6%,6.8%,-15.9%,2.1%,-3.7%,19.1%,97.4%,114%,119%,95%,111%,99%,70.9%,86.5%,88.8%,100%
"COc1ccc2c(c1OC)C(=O)OC2C1c2cc3c(cc2CCN1C)OCO3 (single isomer, unassigned; (+)) [(+)-Hydrastine]",-8.8%,-29.1%,0%,4%,2.4%,14.5%,-12.5%,-11.8%,4.3%,-39.8%,109%,99.8%,84.5%,109%,83.4%,120%,98.5%,80.6%,137%,118%
CC(C)c1cccc(C(C)C)c1O [Propofol],-13%,9.4%,-4.1%,-1.3%,-12.8%,-9.1%,-5.8%,8.1%,0.8%,8.5%,109%,105%,109%,113%,88.5%,99.5%,91.1%,98.3%,122%,91.9%
C[N+](C)(C)CCCCCCCCCC[N+](C)(C)C [Decamethonium dibromide],-7.9%,-7.7%,-1.6%,-11.2%,3.2%,-11.2%,1.3%,-25.2%,44.5%,-3.3%,86.2%,73.9%,70.9%,145%,90.2%,116%,106%,119%,130%,102%
NCCc1c[nH]c2ccc(O)cc12 [Serotonin hydrochloride],0.4%,-12.8%,0.8%,-5.8%,-6.4%,-19.7%,-14.8%,-13.9%,10.1%,23.7%,81.2%,104%,97.9%,75.9%,103%,89.1%,111%,98.7%,115%,96.7%
CC(CCc1ccccc1)NC(C)C(O)c1ccc(O)cc1 (stereo not given) [Nylidrin hydrochloride],-1.4%,-6.8%,8.9%,31.4%,13.1%,-4.1%,-11.9%,18.3%,7%,23.8%,96.1%,91.9%,94.8%,107%,115%,96.1%,80.4%,70.3%,63.5%,85.8%
CCC1(c2ccc(N)cc2)CCC(=O)NC1=O (racemic) [(±)-p-Aminoglutethimide],1.1%,-18%,-10.6%,-22.9%,9.4%,-27.4%,-2.7%,9.9%,-13.3%,14.7%,94.2%,99.7%,112%,123%,110%,125%,108%,115%,110%,111%
NCCCNCCSP(=O)(O)O [Amifostine],-20.9%,-14.1%,-7.8%,-6.7%,-4.9%,-17.7%,-27%,-11.2%,3%,-0.9%,93.7%,87%,101%,105%,86.5%,95.3%,91.3%,77.4%,94.5%,105%
COc1cc2c(c(OC)c1OC)-c1ccc(OC)c(=O)cc1[C@@H](NC(C)=O)CC2 [Colchicine],1.1%,2.1%,6%,1.3%,14.7%,22.8%,25.4%,20.9%,36%,55.6%,92.1%,113%,97.3%,104%,132%,91%,126%,78.7%,72.6%,87.7%
NCCc1c[nH]c2ccccc12 [Tryptamine hydrochloride],-0.7%,-0.3%,-17.1%,-3.1%,4.9%,-14.8%,4.7%,-18.3%,15.5%,31.9%,98.3%,66.8%,99.1%,85.6%,76.4%,118%,150%,92.2%,113%,80.9%
NC(=O)CN1CCCC1=O [Piracetam],-18.5%,4.1%,-9.9%,16.2%,16.8%,-8.3%,-6.4%,-5.1%,25%,-6.2%,87.4%,107%,88.4%,105%,109%,107%,87%,82.7%,131%,122%
CN1C(=O)CCS(=O)(=O)C1c1ccc(Cl)cc1 (stereo not given) [Chlormezanone],1.3%,-12.8%,0%,-22.9%,-6.4%,-0.4%,14.1%,8.7%,-7.9%,-1.5%,118%,159%,135%,138%,120%,81%,90.8%,122%,99.7%,113%
O=c1[nH]c2ccccc2n1C1CCN(CCCC(c2ccc(F)cc2)c2ccc(F)cc2)CC1 [Pimozide],-25.1%,5.9%,-5.2%,26.7%,29%,-39%,-0.3%,1.5%,25%,-3.4%,59.6%,49.3%,45.6%,24.2%,48.7%,101%,92.6%,84.2%,52.4%,112%
CN(C)C(=O)Oc1cccc([N+](C)(C)C)c1 [Neostigmine bromide],-10%,3.2%,14.6%,18.1%,23.4%,-34.9%,-1.5%,1.5%,5.5%,2.3%,99.5%,112%,94.1%,101%,128%,113%,126%,140%,122%,137%
CC(NC(C)(C)C)C(=O)c1cccc(Cl)c1 (stereo not given) [Bupropion hydrochloride],-23.1%,-11.7%,-23.5%,-20.2%,-14.7%,21%,-36.5%,19.9%,27.2%,9%,132%,85.5%,144%,114%,106%,97.2%,90.3%,120%,115%,97.1%
Cc1cccc(C)c1NC1=NCCCS1 [Xylazine hydrochloride],-28.9%,-18.3%,-10.7%,1.9%,-33.7%,-10%,-10.7%,8.7%,-8.6%,-2.3%,138%,111%,103%,98.4%,128%,80%,94.4%,99.4%,75.7%,87.6%
c1ccc2nc(N3CCNCC3)ccc2c1 [Quipazine dimaleate],-11.5%,-17.1%,-3.9%,-14.2%,-18.9%,-44.4%,-46%,-3.7%,1%,-16.5%,86%,118%,131%,82.7%,91.5%,104%,89.9%,92.7%,115%,91.2%
CC[C@@H](CO)NC(=O)[C@@H]1C=C2c3cccc4[nH]cc(c34)C[C@H]2N(C)C1 [Methylergonovine maleate],-25.1%,4.1%,0.5%,18.1%,4.7%,15.1%,-5.8%,-10.5%,-10.7%,31.9%,121%,108%,80.8%,97.4%,126%,114%,88.4%,73.5%,96.1%,119%

# Random excerpt: 2 compounds from above, in no set order.
Structure (SMILES),loss of total cells (Human fetal astrocytes [1]; 1.39 µM),loss of total cells (Human fetal astrocytes [1]; 2.78 µM),loss of total cells (Human fetal astrocytes [1]; 5.56 µM),loss of total cells (Human fetal astrocytes [1]; 11.11 µM),loss of total cells (Human fetal astrocytes [1]; 22.22 µM),loss of total cells (Human fetal astrocytes [2]; 1.39 µM),loss of total cells (Human fetal astrocytes [2]; 2.78 µM),loss of total cells (Human fetal astrocytes [2]; 5.56 µM),loss of total cells (Human fetal astrocytes [2]; 11.11 µM),loss of total cells (Human fetal astrocytes [2]; 22.22 µM),synaptosome phagocytosis (Human fetal astrocytes [3]; 1.39 µM),synaptosome phagocytosis (Human fetal astrocytes [3]; 2.78 µM),synaptosome phagocytosis (Human fetal astrocytes [3]; 5.56 µM),synaptosome phagocytosis (Human fetal astrocytes [3]; 11.11 µM),synaptosome phagocytosis (Human fetal astrocytes [3]; 22.22 µM),synaptosome phagocytosis (Human fetal astrocytes [4]; 1.39 µM),synaptosome phagocytosis (Human fetal astrocytes [4]; 2.78 µM),synaptosome phagocytosis (Human fetal astrocytes [4]; 5.56 µM),synaptosome phagocytosis (Human fetal astrocytes [4]; 11.11 µM),synaptosome phagocytosis (Human fetal astrocytes [4]; 22.22 µM)
NCC(O)c1ccc(O)cc1 (racemic) [(±)-Octopamine hydrochloride],-5.2%,-1.4%,4.2%,-24.8%,-12.1%,3.2%,12.6%,5.8%,7.9%,11.4%,126%,140%,88.5%,112%,95.9%,119%,104%,129%,99.1%,142%
"C[N+]1(C)[C@@H]2CC(OC(=O)[C@H](CO)c3ccccc3)C[C@H]1[C@@H]1O[C@@H]12 (single isomer, unassigned; (-)) [(-)-Scopolamine methyl nitrate]",-23.3%,-29.6%,-19.1%,-21.1%,-36.2%,-9.1%,-4.6%,6.3%,-23.4%,-5.1%,67%,77.7%,93%,79.2%,92.2%,99.1%,100%,94.8%,129%,115%

# From the supplement of paper PMC10689618
